Consider 42 sequences from paper PMC7819943, “Rice protein-binding microarrays: a tool to detect cis-acting elements near promoter regions in rice”.

The chains behind the UniProt entries cited, without tags or fusion partners.
UniProt Q0JBA9, entry or part of it: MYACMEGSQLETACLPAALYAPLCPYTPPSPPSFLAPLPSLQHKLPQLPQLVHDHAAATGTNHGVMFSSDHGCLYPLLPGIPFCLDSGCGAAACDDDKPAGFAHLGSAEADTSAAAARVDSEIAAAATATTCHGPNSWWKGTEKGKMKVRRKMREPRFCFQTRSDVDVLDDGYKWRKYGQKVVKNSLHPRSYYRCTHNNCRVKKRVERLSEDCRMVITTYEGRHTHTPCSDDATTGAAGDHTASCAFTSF

The list shows a part of the results.

This assay deals with OsWRKY34 (Oryza sativa, UniProt Q0JBA9 1-250). The assay is described as follows: protein-binding microarray (RPBM); PBS, 2% BSA, 51.3 ng/ul salmon testes DNA, 50 uM zinc acetate, 200 nM TF, 25 C, 1 h; high values mean tight binding. The following applies: protein: recombinant; tags: N-terminal polyhistidine and DsRed monomer fusion (pET32a); label: CyDye5-dUTP incorporated in the synthesized complementary strand; 3' TTTTT single-stranded linker to array surface; dsDNA, one strand shown. The procedure, abridged: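 An Axon 4000B scanner gave the binding signal as per-feature fluorescence intensity in arbitrary units. This followed washing of a custom Agilent array that had been incubated for 1 h at 25 °C with 200 nM protein in PBS, 2% BSA, salmon testes DNA and 50 µM zinc acetate. The proteins were transcription factors fused at the N-terminus to polyhistidine and DsRed, expressed in E. coli BL21-CodonPlus and purified on Ni–NTA.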
Turning to “GGTTCTCTTCCTCTTGCTCTTGCTCGCCGCCGGCTTGCTCCGGAGTCACCTAGTGCAG”, the binding signal was 10400 fluorescence intensity (a.u.).
Take “AACTGGTCTCTACCATTGAACATGCCCTAATACAGTTTTCCGGAGTCACCTAGTGCAG”: the binding signal was 9060 fluorescence intensity (a.u.).
Under “GTTTGTATTGTCTGTTGGAGTCCATAAACGTTTTATCACACGGAGTCACCTAGTGCAG” stands 11800 fluorescence intensity (a.u.); under “ATCTCTCTCTCTCGGCCCGGCCCGTTCTCTCTCTCAGCCTCGGAGTCACCTAGTGCAG”, 8150 fluorescence intensity (a.u.).
“GCTCGTCGTCGCCACCTCACCACCACACACGCGCAGCCAACGGAGTCACCTAGTGCAG”: the binding signal is 8090 fluorescence intensity (a.u.).
Under “ATGGTGTTGGAGTGAGGCAAATTTAACTCTTTTTTTTTTTCGGAGTCACCTAGTGCAG” stands 12600 fluorescence intensity (a.u.); under “ATTTTTTAAGTGTACGTTGTTGTTGACTTTTTTTATTAACCGGAGTCACCTAGTGCAG”, 14400 fluorescence intensity (a.u.); under “CTCCATATTCTTACAAGATCTCAGCTTCTCCATATTCATACGGAGTCACCTAGTGCAG”, 8440 fluorescence intensity (a.u.).
For “GTCGTAGTTTATTTCTAGCATTGACCTTTAAAGTTGCTACCGGAGTCACCTAGTGCAG”, the binding signal is 10600 fluorescence intensity (a.u.).
As to “CCGGTAACCCTCACAATCCCGTTCGTCGAGATCGTCGCTTCGGAGTCACCTAGTGCAG”, the binding signal was 9040 fluorescence intensity (a.u.).
Regarding “GACTCTTCTCTTTTCTTTTTATCTTCTTAAAATATATTTACGGAGTCACCTAGTGCAG”, the binding signal was 11100 fluorescence intensity (a.u.).
Consider “TCCGCCGCCACGCTCCGCCACCTCCGCTCCGACGCTGGACCGGAGTCACCTAGTGCAG”, for which the binding signal is 9000 fluorescence intensity (a.u.).
Take “CTTCTCCCATGCGCCGCCGCAATCTCATCTCTCTGTTTTTCGGAGTCACCTAGTGCAG”: the binding signal was 9220 fluorescence intensity (a.u.).
“ACTCACATATATGTTCCTGCTGTCCCAGGCCTCTTGCTTACGGAGTCACCTAGTGCAG”: the binding signal is 11300 fluorescence intensity (a.u.).
With “TACACGGTATTGTATATGTTAGGGCTGAAGATTTCTGGTACGGAGTCACCTAGTGCAG”, the binding signal is 8060 fluorescence intensity (a.u.).
Under “GTTATATTATTGCACCGATAACATTTCTTTATATACCAATCGGAGTCACCTAGTGCAG” stands 8370 fluorescence intensity (a.u.); under “TATGTTGCGTTTTAGTTTTAGTTCCATATATTTTAGCACACGGAGTCACCTAGTGCAG”, 9740 ± 807 fluorescence intensity (a.u.); under “TTTAGCGATTTGTTTTATGTTTTGAGTTTAGTGTTGTGATCGGAGTCACCTAGTGCAG”, 9320 fluorescence intensity (a.u.).
For “GTTTATTGTATCATCCAGGTCCAAAGCCACTTTTGACCGTCGGAGTCACCTAGTGCAG”, the binding signal was 8460 fluorescence intensity (a.u.).
Regarding “ACAGATACAGCATGCAGCTCCGGTACTTATCAGGCAAATACGGAGTCACCTAGTGCAG”, the binding signal was 8610 fluorescence intensity (a.u.).
Regarding “GGGAGAGAGAAATAATCCTTAAAATCATTCAAACCTTTTGCGGAGTCACCTAGTGCAG”, the binding signal is 8190 fluorescence intensity (a.u.).
Take “AACTGGTCGCCTGCTGATTTATTTTTGTTTGTCAGCCCTTCGGAGTCACCTAGTGCAG”: the binding signal was 8580 fluorescence intensity (a.u.).
Take “GAAATCTCCCGTTTCTCCCGTTGCCTTGCGCCGCCGCCAACGGAGTCACCTAGTGCAG”: the binding signal was 9980 fluorescence intensity (a.u.).
“AAACAACAATACTTCGTCTCACATTTCTCTCTTTCTTTTACGGAGTCACCTAGTGCAG”: the binding signal is 8430 fluorescence intensity (a.u.).
In the case of “ATCTCCATCTGGCGAGCAGAGGCCGGGGAGGGAGGGGCGCCGGAGTCACCTAGTGCAG”, the binding signal was 14100 fluorescence intensity (a.u.).
Under “GCATCTACTTCCCACGTCATCATCTTCATCATTAATATAACGGAGTCACCTAGTGCAG” stands 11500 fluorescence intensity (a.u.).
As to “TTTCATCTCCTAGCTAGCTTGTTGTACTGCATCTGTAATACGGAGTCACCTAGTGCAG”, the binding signal was 8270 fluorescence intensity (a.u.).
For the sequence “GTCGCTTCTTGCACAGTTGGTACGATGCACGTCATGTTATCGGAGTCACCTAGTGCAG”, the binding signal was 8680 fluorescence intensity (a.u.).
With “AGCCGCCCATTTTATGCAGTCCATTCCAAAGACCGACGAACGGAGTCACCTAGTGCAG”, the binding signal was 8230 fluorescence intensity (a.u.).
With “CCCAACAATTCCGTCGCCCTGGACTTATCACGCGCCGTAGCGGAGTCACCTAGTGCAG”, the binding signal was 9210 fluorescence intensity (a.u.).
Take “TTTCGCATTTCGGTGGACTGCTAATCCCGTAATCCGTGTCCGGAGTCACCTAGTGCAG”: the binding signal was 9110 fluorescence intensity (a.u.).
For the sequence “ATACATTGCCGAGGATGGGAGTCAGTCTACATGGAACCTCCGGAGTCACCTAGTGCAG”, the binding signal was 8620 fluorescence intensity (a.u.).
Next, “ATCATTTCGCACATTAACTCTCTCTCTCTCTCTCCATTTTCGGAGTCACCTAGTGCAG”: 15200 fluorescence intensity (a.u.); “CTTTTATATAGCTTTGTCTAGTCTTGTGAATTCTCAATTGCGGAGTCACCTAGTGCAG”: 8530 fluorescence intensity (a.u.).
For the sequence “ATTTGGGGTTTGGATACTTGAACTTTATTTTGACTTCTGACGGAGTCACCTAGTGCAG”, the binding signal is 14000 fluorescence intensity (a.u.).
Under “AGCTAATCCGTTTTCGGGACCGAGCGCACCCTAATCTCCACGGAGTCACCTAGTGCAG” stands 8490 fluorescence intensity (a.u.); under “TTCTTATTTCGACCTGGTTTAGTTCCCAACTTTTTCTTCACGGAGTCACCTAGTGCAG”, 10900 fluorescence intensity (a.u.).
Consider “ATATGTTTTATGTGTCTTTTAATTCTCTATTTTACACTTCCGGAGTCACCTAGTGCAG”, for which the binding signal was 11100 fluorescence intensity (a.u.).
Consider “AATCGGTTTAACTCAAAATCCCAACTCCGAACGCCTCTTCCGGAGTCACCTAGTGCAG”, for which the binding signal was 8100 fluorescence intensity (a.u.).
For the sequence “CAGTTTAAATGCAGCGTTGGTTTTCAGCGTCCAACTTTTTCGGAGTCACCTAGTGCAG”, the binding signal was 8670 fluorescence intensity (a.u.).
As for “GAAGCTAATACACCTTCGCTACATCTCCTTGCTTAGCACCCGGAGTCACCTAGTGCAG”, the binding signal was 8160 fluorescence intensity (a.u.).
As to “TGGAGCCCCTGCTGTTCTTGTCCATTGTTTTAGCTATATACGGAGTCACCTAGTGCAG”, the binding signal was 9060 fluorescence intensity (a.u.).
